Measured values published in the supplement of paper PMC12823440, “Inhibitors supercharge kinase turnover through native proteolytic circuits” (Nature, 2025).
Structures can show the parent of a compound that is named as a salt. Some of the results follow. The calls rarely recur for the same compound in another form.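 Kinases, fused to nanoluciferase, were expressed in K562 cells; luminescence was measured every 4 h from 2 to 18 h as percent of control (DMSO = 100%, positive control = 0%). A time point is decreased if signal falls significantly (2 sigma). Hits were called by the authors by a rule that is not shown; the count of time points alone does not decide it.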

Amino acid sequences for entries named in this document (tags omitted). A change or cut given only in a name is not applied to a line headed by its entry.
UniProt P36888, whole entry: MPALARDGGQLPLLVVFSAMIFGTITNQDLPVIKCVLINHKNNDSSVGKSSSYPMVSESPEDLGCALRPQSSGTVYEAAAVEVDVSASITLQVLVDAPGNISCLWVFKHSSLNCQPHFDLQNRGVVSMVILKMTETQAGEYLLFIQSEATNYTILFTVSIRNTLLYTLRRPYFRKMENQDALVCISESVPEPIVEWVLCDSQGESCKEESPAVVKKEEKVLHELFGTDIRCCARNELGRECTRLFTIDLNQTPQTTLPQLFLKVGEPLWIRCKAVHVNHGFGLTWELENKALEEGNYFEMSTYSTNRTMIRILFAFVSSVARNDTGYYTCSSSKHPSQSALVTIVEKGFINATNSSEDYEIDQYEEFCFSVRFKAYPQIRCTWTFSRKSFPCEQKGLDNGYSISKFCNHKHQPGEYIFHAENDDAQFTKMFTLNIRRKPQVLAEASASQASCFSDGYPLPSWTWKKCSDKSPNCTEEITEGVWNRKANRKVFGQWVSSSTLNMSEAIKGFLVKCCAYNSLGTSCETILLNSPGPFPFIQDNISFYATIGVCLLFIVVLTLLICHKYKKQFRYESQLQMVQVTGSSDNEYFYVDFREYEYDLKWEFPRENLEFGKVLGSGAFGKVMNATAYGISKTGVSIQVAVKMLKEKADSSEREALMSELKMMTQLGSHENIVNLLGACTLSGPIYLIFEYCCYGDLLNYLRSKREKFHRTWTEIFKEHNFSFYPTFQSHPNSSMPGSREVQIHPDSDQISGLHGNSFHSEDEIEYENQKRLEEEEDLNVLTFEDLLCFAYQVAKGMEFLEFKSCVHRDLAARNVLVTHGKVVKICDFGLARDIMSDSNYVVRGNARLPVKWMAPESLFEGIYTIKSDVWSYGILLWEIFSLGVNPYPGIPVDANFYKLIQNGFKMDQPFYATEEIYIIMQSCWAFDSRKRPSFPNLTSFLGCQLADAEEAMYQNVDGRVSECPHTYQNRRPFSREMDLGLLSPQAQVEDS
UniProt P49840: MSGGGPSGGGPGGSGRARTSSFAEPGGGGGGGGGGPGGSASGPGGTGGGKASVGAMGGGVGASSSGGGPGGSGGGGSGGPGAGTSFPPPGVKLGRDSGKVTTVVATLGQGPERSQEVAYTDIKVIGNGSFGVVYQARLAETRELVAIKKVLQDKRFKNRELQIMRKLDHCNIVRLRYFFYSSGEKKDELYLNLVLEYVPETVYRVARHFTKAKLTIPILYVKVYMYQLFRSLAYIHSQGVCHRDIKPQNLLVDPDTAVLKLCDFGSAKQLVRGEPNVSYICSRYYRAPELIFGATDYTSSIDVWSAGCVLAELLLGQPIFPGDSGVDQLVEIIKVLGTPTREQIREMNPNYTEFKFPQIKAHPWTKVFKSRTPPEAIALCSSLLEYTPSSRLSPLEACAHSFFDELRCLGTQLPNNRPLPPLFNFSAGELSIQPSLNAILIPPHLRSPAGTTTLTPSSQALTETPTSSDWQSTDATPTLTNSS
UniProt P14616: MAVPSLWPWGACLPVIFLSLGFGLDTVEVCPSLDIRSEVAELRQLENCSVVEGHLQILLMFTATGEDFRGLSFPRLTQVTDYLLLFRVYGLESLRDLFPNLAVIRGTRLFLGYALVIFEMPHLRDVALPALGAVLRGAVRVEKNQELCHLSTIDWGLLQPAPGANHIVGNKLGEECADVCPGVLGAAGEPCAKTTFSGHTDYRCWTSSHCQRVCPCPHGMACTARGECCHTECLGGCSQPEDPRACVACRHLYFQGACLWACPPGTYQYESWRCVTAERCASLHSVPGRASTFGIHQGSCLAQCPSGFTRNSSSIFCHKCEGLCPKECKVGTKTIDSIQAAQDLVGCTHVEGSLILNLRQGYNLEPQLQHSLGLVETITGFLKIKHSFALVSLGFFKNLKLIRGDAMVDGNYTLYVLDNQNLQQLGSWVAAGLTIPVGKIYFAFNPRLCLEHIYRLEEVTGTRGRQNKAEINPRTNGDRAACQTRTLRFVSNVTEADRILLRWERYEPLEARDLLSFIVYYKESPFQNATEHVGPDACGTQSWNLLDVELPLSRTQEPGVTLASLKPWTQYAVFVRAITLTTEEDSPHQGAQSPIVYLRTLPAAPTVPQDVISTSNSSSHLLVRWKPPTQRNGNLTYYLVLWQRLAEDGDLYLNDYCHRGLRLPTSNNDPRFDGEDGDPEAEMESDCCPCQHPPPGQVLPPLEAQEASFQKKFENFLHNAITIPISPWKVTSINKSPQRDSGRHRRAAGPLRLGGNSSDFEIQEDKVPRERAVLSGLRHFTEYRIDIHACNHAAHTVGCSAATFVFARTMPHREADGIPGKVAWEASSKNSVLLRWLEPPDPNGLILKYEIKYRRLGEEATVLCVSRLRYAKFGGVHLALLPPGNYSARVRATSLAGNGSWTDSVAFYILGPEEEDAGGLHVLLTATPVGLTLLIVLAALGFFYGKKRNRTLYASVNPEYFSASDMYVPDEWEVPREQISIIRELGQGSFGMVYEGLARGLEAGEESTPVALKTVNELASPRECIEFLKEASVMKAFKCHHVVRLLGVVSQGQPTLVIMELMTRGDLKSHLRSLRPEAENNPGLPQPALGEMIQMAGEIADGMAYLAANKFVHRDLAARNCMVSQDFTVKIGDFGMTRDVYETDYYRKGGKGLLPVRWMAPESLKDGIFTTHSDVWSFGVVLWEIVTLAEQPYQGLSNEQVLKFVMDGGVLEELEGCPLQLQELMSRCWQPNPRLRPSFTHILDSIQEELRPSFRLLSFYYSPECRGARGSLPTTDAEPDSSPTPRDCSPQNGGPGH
UniProt Q9Y616: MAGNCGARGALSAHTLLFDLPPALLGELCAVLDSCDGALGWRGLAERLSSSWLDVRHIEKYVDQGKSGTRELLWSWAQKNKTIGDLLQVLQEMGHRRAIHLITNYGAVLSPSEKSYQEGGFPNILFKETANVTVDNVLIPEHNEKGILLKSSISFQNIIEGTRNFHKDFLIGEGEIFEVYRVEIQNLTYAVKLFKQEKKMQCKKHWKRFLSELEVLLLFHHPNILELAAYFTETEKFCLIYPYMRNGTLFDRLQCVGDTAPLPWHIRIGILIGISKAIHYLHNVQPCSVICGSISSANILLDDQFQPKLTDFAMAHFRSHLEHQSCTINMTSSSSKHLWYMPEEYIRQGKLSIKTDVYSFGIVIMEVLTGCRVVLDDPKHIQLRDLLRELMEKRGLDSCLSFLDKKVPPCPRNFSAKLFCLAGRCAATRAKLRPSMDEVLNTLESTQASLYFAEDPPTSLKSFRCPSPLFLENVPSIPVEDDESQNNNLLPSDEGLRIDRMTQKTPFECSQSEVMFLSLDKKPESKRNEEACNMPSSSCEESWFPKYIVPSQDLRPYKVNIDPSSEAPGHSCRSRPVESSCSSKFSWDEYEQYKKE
UniProt P23458: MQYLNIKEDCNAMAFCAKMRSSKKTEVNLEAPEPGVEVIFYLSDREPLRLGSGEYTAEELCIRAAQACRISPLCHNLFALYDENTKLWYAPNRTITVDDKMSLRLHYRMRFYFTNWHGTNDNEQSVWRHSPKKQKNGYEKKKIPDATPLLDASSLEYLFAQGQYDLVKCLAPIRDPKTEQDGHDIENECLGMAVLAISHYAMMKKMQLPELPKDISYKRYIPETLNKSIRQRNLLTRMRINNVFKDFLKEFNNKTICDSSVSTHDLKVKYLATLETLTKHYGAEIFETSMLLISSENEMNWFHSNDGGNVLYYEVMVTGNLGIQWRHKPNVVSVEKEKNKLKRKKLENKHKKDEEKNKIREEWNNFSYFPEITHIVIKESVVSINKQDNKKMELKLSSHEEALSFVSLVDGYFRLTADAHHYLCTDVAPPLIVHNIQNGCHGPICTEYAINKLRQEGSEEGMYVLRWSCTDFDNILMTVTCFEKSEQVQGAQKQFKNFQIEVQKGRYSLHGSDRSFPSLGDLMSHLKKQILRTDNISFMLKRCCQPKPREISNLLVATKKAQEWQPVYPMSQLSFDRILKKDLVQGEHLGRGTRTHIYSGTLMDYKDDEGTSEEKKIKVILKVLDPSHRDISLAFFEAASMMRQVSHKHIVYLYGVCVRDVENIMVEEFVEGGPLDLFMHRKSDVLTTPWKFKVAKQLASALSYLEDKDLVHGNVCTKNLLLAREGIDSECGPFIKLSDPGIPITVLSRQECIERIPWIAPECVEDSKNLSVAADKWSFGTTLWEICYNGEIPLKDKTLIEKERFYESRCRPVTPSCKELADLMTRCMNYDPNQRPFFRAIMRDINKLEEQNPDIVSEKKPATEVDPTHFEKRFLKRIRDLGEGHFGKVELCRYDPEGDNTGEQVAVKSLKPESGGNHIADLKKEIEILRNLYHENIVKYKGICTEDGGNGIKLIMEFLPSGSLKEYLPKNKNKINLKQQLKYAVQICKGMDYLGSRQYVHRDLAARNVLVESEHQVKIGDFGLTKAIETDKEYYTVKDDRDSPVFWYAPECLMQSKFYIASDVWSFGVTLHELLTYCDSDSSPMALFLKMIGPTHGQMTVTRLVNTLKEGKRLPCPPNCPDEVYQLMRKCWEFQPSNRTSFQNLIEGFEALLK
UniProt P06239: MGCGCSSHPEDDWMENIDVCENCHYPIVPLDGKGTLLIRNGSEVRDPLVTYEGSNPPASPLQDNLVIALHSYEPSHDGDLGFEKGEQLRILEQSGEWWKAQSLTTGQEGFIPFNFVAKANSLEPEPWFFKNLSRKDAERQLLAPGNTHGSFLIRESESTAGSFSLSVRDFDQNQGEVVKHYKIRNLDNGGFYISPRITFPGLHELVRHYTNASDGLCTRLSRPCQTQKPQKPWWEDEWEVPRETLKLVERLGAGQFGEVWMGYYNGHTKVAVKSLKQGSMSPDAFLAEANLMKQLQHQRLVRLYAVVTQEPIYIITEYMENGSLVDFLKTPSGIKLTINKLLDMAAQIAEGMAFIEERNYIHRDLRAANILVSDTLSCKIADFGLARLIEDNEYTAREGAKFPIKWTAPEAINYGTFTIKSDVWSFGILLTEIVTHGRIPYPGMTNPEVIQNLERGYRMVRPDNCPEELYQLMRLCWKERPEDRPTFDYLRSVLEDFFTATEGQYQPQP
UniProt P07948: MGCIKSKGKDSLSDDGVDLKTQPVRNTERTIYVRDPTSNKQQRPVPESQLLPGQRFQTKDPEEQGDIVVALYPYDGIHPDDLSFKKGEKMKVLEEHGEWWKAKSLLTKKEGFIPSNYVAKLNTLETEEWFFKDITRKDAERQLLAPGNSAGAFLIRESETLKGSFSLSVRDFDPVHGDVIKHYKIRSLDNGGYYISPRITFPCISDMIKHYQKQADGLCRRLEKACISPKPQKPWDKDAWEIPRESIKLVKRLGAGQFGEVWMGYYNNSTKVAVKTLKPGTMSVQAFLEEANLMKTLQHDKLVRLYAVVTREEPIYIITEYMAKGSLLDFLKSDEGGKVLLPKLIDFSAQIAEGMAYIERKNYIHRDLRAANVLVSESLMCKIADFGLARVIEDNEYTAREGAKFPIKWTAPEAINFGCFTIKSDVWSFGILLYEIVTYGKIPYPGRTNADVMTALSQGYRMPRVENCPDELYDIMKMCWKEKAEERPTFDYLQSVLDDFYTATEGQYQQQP
UniProt Q12851: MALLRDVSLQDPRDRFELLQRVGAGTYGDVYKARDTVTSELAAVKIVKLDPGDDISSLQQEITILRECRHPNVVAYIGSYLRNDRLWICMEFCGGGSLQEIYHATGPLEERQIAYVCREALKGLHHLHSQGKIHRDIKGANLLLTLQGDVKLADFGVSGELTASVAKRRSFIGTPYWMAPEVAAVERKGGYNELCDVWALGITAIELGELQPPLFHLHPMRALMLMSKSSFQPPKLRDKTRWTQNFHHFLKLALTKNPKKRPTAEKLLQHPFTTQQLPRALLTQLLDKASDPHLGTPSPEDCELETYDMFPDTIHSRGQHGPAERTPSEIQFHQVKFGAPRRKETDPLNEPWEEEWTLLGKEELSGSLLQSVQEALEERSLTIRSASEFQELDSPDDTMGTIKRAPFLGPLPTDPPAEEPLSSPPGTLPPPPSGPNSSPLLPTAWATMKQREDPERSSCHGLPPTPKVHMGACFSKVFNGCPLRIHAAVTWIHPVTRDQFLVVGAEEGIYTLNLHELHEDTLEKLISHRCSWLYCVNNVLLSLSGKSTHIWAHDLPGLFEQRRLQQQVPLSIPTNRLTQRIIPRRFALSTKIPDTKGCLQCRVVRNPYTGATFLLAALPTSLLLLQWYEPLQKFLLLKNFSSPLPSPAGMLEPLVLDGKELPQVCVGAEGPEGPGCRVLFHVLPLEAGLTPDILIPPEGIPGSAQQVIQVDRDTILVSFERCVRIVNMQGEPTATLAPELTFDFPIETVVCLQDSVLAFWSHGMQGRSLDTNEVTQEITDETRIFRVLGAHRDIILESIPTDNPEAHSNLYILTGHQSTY

Assays:
Assay in all cases: kinase-Nluc reporter destabilization hit call (1 = scored as downregulated) (binary); higher = compound decreases kinase abundance
Conditions in all cases: K562, 2-18 h
ERN1 = ERN1 (UniProt O75460)
FGFR1 = FGFR1 (UniProt P11362)
FGFR2 = FGFR2 (UniProt P21802)
FGFR3 = FGFR3 (UniProt P22607)
FGR = FGR (UniProt P09769)
FLT3 = FLT3 (UniProt P36888)
FYN = FYN (UniProt P06241)
GSK3A = GSK3A (UniProt P49840)
HER2 = HER2 (UniProt P04626)
INSRR = INSRR (UniProt P14616)
IRAK3 = IRAK3 (UniProt Q9Y616)
JAK1 = JAK1 (UniProt P23458)
LCK = LCK (UniProt P06239)
LIMK1 = LIMK1 (UniProt P53667)
LIMK2 = LIMK2 (UniProt P53671)
LMTK2 = LMTK2 (UniProt Q8IWU2)
LYN = LYN (UniProt P07948)
MAP2K1 = MAP2K1 (UniProt Q02750)
MAP2K2 = MAP2K2 (UniProt P36507)
MAP4K2 = MAP4K2 (UniProt Q12851)

Measured: kinase-Nluc reporter destabilization hit call

COc1cc2nccc(Nc3cc(OC)c(OC)c(OC)c3)c2cc1OC [GAK inhibitor 49 (hydrochloride)]
inactive: ERN1; 10 µM 0 | FGFR1; 10 µM 0 | FGFR2; 10 µM 0 | FGFR3; 10 µM 0 | FGR; 10 µM 0 | FLT3; 10 µM 0 | FYN; 10 µM 0 | GSK3A; 10 µM 0 | HER2; 10 µM 0 | INSRR; 10 µM 0 | IRAK3; 10 µM 0 | JAK1; 10 µM 0 | LCK; 10 µM 0 | LIMK1; 10 µM 0 | LIMK2; 10 µM 0 | LMTK2; 10 µM 0 | LYN; 10 µM 0 | MAP2K1; 10 µM 0 | MAP2K2; 10 µM 0 | MAP4K2; 10 µM 0

CCS(=O)(=O)N1CC(CC#N)(n2cc(-c3ncnc4[nH]ccc34)cn2)C1 [Baricitinib]
inactive: ERN1; 10 µM 0 | FGFR1; 10 µM 0 | FGFR2; 10 µM 0 | FGFR3; 10 µM 0 | FGR; 10 µM 0 | FLT3; 10 µM 0 | FYN; 10 µM 0 | GSK3A; 10 µM 0 | HER2; 10 µM 0 | INSRR; 10 µM 0 | IRAK3; 10 µM 0 | LCK; 10 µM 0 | LIMK1; 10 µM 0 | LIMK2; 10 µM 0 | LMTK2; 10 µM 0 | LYN; 10 µM 0 | MAP2K1; 10 µM 0 | MAP2K2; 10 µM 0 | MAP4K2; 10 µM 0

C[C@H](Nc1cc(-c2cnn(C)c2)cc(Nc2cnccn2)n1)c1ccc(F)cc1 [Ilginatinib hydrochloride]
inactive: ERN1; 2.5 µM 0 | FGFR1; 2.5 µM 0 | FGFR3; 2.5 µM 0 | FGR; 2.5 µM 0 | FLT3; 2.5 µM 0 | FYN; 2.5 µM 0 | GSK3A; 2.5 µM 0 | HER2; 2.5 µM 0 | INSRR; 2.5 µM 0 | IRAK3; 2.5 µM 0 | JAK1; 2.5 µM 0 | LCK; 2.5 µM 0 | LIMK1; 2.5 µM 0 | LIMK2; 2.5 µM 0 | LMTK2; 2.5 µM 0 | LYN; 2.5 µM 0 | MAP2K1; 2.5 µM 0 | MAP2K2; 2.5 µM 0 | MAP4K2; 2.5 µM 0
active: FGFR2; 2.5 µM 1

CC(C)(C)n1nc(-c2cccc3ccccc23)c2c(N)ncnc21 [1-Naphthyl PP1 (hydrochloride)]
inactive: ERN1; 10 µM 0 | FGFR1; 10 µM 0 | FGFR2; 10 µM 0 | FGFR3; 10 µM 0 | FGR; 10 µM 0 | FLT3; 10 µM 0 | FYN; 10 µM 0 | GSK3A; 10 µM 0 | HER2; 10 µM 0 | INSRR; 10 µM 0 | IRAK3; 10 µM 0 | JAK1; 10 µM 0 | LIMK1; 10 µM 0 | LIMK2; 10 µM 0 | LMTK2; 10 µM 0 | LYN; 10 µM 0 | MAP2K1; 10 µM 0 | MAP2K2; 10 µM 0 | MAP4K2; 10 µM 0

CCCC(=O)Nc1ncnc2c1ncn2[C@@H]1O[C@@H]2COP(=O)(O)O[C@H]2[C@H]1OC(=O)CCC [Bucladesine (sodium)]
inactive: ERN1; 10 µM 0 | FGFR1; 10 µM 0 | FGFR2; 10 µM 0 | FGFR3; 10 µM 0 | FGR; 10 µM 0 | FLT3; 10 µM 0 | FYN; 10 µM 0 | GSK3A; 10 µM 0 | HER2; 10 µM 0 | INSRR; 10 µM 0 | IRAK3; 10 µM 0 | JAK1; 10 µM 0 | LCK; 10 µM 0 | LIMK1; 10 µM 0 | LIMK2; 10 µM 0 | LMTK2; 10 µM 0 | LYN; 10 µM 0 | MAP2K1; 10 µM 0 | MAP2K2; 10 µM 0 | MAP4K2; 10 µM 0

Cc1cccc(-c2[nH]c(CNc3ccccc3F)nc2-c2ccc3ncnn3c2)n1 [Vactosertib (Hydrochloride)]
inactive: ERN1; 2.5 µM 0 | FGFR1; 2.5 µM 0 | FGFR2; 2.5 µM 0 | FGFR3; 2.5 µM 0 | FGR; 2.5 µM 0 | FLT3; 2.5 µM 0 | FYN; 2.5 µM 0 | GSK3A; 2.5 µM 0 | HER2; 2.5 µM 0 | INSRR; 2.5 µM 0 | IRAK3; 2.5 µM 0 | JAK1; 2.5 µM 0 | LCK; 2.5 µM 0 | LIMK1; 2.5 µM 0 | LIMK2; 2.5 µM 0 | LMTK2; 2.5 µM 0 | LYN; 2.5 µM 0 | MAP2K1; 2.5 µM 0 | MAP2K2; 2.5 µM 0 | MAP4K2; 2.5 µM 0

Cc1nc2ccc(-n3c(-c4nonc4N)nc4cnccc43)cc2[nH]1
inactive: ERN1; 10 µM 0 | FGFR1; 10 µM 0 | FGFR2; 10 µM 0 | FGFR3; 10 µM 0 | FGR; 10 µM 0 | FLT3; 10 µM 0 | FYN; 10 µM 0 | GSK3A; 10 µM 0 | HER2; 10 µM 0 | INSRR; 10 µM 0 | IRAK3; 10 µM 0 | JAK1; 10 µM 0 | LCK; 10 µM 0 | LIMK1; 10 µM 0 | LIMK2; 10 µM 0 | LMTK2; 10 µM 0 | LYN; 10 µM 0 | MAP2K1; 10 µM 0 | MAP2K2; 10 µM 0 | MAP4K2; 10 µM 0

CNC(=O)c1cc(Oc2ccc(NC(=O)Nc3ccc(Cl)c(C(F)(F)F)c3)c(F)c2)ccn1 [Regorafenib (monohydrate)]
inactive: ERN1; 2.5 µM 0 | FGFR1; 2.5 µM 0 | FGFR2; 2.5 µM 0 | FGFR3; 2.5 µM 0 | FGR; 2.5 µM 0 | FLT3; 2.5 µM 0 | FYN; 2.5 µM 0 | GSK3A; 2.5 µM 0 | HER2; 2.5 µM 0 | INSRR; 2.5 µM 0 | IRAK3; 2.5 µM 0 | JAK1; 2.5 µM 0 | LCK; 2.5 µM 0 | LIMK1; 2.5 µM 0 | LIMK2; 2.5 µM 0 | LMTK2; 2.5 µM 0 | LYN; 2.5 µM 0 | MAP2K1; 2.5 µM 0 | MAP2K2; 2.5 µM 0 | MAP4K2; 2.5 µM 0

CCS(=O)(=O)N1CC(CC#N)(n2cc(-c3ncnc4[nH]ccc34)cn2)C1 [Baricitinib (phosphate)]
inactive: ERN1; 10 µM 0 | FGFR1; 10 µM 0 | FGFR2; 10 µM 0 | FGFR3; 10 µM 0 | FGR; 10 µM 0 | FLT3; 10 µM 0 | FYN; 10 µM 0 | GSK3A; 10 µM 0 | HER2; 10 µM 0 | INSRR; 10 µM 0 | IRAK3; 10 µM 0 | LCK; 10 µM 0 | LIMK1; 10 µM 0 | LIMK2; 10 µM 0 | LMTK2; 10 µM 0 | LYN; 10 µM 0 | MAP2K1; 10 µM 0 | MAP2K2; 10 µM 0 | MAP4K2; 10 µM 0

COc1cc2nccc(Nc3cc(OC)c(OC)c(OC)c3)c2cc1OC [GAK inhibitor 49]
inactive: ERN1; 10 µM 0 | FGFR1; 10 µM 0 | FGFR2; 10 µM 0 | FGFR3; 10 µM 0 | FGR; 10 µM 0 | FLT3; 10 µM 0 | FYN; 10 µM 0 | GSK3A; 10 µM 0 | HER2; 10 µM 0 | INSRR; 10 µM 0 | IRAK3; 10 µM 0 | JAK1; 10 µM 0 | LCK; 10 µM 0 | LIMK1; 10 µM 0 | LIMK2; 10 µM 0 | LMTK2; 10 µM 0 | LYN; 10 µM 0 | MAP2K1; 10 µM 0 | MAP2K2; 10 µM 0 | MAP4K2; 10 µM 0

CC(C)(C)n1nc(-c2cccc3ccccc23)c2c(N)ncnc21 [1-Naphthyl PP1]
inactive: ERN1; 10 µM 0 | FGFR1; 10 µM 0 | FGFR2; 10 µM 0 | FGFR3; 10 µM 0 | FGR; 10 µM 0 | FLT3; 10 µM 0 | FYN; 10 µM 0 | GSK3A; 10 µM 0 | HER2; 10 µM 0 | INSRR; 10 µM 0 | IRAK3; 10 µM 0 | JAK1; 10 µM 0 | LIMK1; 10 µM 0 | LIMK2; 10 µM 0 | LMTK2; 10 µM 0 | LYN; 10 µM 0 | MAP2K1; 10 µM 0 | MAP2K2; 10 µM 0 | MAP4K2; 10 µM 0

C=CC(=O)Nc1cc(Nc2ncc(C(=O)OC(C)C)c(-c3cn(C)c4ccccc34)n2)c(OC)cc1N(C)CCN(C)C [Mobocertinib (succinate)]
inactive: ERN1; 10 µM 0 | FGFR1; 10 µM 0 | FGFR2; 10 µM 0 | FGFR3; 10 µM 0 | FGR; 10 µM 0 | FLT3; 10 µM 0 | FYN; 10 µM 0 | GSK3A; 10 µM 0 | HER2; 10 µM 0 | INSRR; 10 µM 0 | IRAK3; 10 µM 0 | JAK1; 10 µM 0 | LCK; 10 µM 0 | LIMK1; 10 µM 0 | LIMK2; 10 µM 0 | LMTK2; 10 µM 0 | LYN; 10 µM 0 | MAP2K1; 10 µM 0 | MAP2K2; 10 µM 0 | MAP4K2; 10 µM 0

C/C=C1\C(=O)C[C@H]2[C@@H]3CCC4=CC(=O)CC[C@]4(C)[C@H]3CC[C@]12C [Guggulsterone]
inactive: ERN1; 10 µM 0 | FGFR1; 10 µM 0 | FGFR2; 10 µM 0 | FGR; 10 µM 0 | FLT3; 10 µM 0 | FYN; 10 µM 0 | GSK3A; 10 µM 0 | HER2; 10 µM 0 | INSRR; 10 µM 0 | IRAK3; 10 µM 0 | JAK1; 10 µM 0 | LCK; 10 µM 0 | LIMK1; 10 µM 0 | LIMK2; 10 µM 0 | LMTK2; 10 µM 0 | LYN; 10 µM 0 | MAP2K1; 10 µM 0 | MAP2K2; 10 µM 0 | MAP4K2; 10 µM 0
